The results in this text go back to patent US20050112564A1 (published 2005).

The chains behind the UniProt entries cited, without tags or fusion partners. Residues count along the entry.
UniProt P02701, residues 25-152: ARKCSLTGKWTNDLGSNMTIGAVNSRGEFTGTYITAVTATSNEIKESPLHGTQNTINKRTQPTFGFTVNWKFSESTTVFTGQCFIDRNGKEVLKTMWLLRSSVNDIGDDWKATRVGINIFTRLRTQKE

The target of the assay is T1, avidin (UniProt P02701 25-152).
T1 construct: also called avidin of a bar code 01
The assay is described as follows: FITC-peptide on avidin-coated bar-coded carriers; fluorescence read in flow tube.

Results are given in words; binding and its absence hold for the method and conditions named. Some results given as binding are weak or reduced against the parent protein; the word gives no strength.

Turning to ISFENTWLWHPQFSS (FITC at the amino-terminus) [FITC-labeled polypeptide of SEQ ID NO: 6 (15 amino acids containing avidin-binding peptide sequence)], the binding result is reported as “binds”.
